Our source for the binding values is publication doi:10.1101/605923.

Like-named read-outs stand apart in the source and are kept apart here. Results are given in words; binding and its absence hold for the method and conditions named. For some of these results: Binding seen in cells or lysates may run through a third protein. Some results given as binding are weak or reduced against the parent protein; the word gives no strength. Tags and fused reporters may be left off the sequences shown.

For assay [1], the target named is T1, RECEPTOR-LIKE PROTEIN 44 (RLP44) fused to RFP, expressed from 35S:RLP44-RFP in plants (Arabidopsis) (UniProt Q9M2Y3).
T1 sequence: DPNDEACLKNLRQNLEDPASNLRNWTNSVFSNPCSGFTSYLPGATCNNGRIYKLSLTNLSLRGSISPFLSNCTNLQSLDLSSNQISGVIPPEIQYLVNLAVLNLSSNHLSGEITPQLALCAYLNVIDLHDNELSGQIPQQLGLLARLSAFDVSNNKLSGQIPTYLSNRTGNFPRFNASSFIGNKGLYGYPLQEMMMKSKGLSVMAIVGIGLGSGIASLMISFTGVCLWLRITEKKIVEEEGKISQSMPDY
Briefly: co-IP.

In assay [2] the target is T2, RLP44, split-ubiquitin fusion in yeast (Arabidopsis) (UniProt Q9M2Y3).
T2 sequence: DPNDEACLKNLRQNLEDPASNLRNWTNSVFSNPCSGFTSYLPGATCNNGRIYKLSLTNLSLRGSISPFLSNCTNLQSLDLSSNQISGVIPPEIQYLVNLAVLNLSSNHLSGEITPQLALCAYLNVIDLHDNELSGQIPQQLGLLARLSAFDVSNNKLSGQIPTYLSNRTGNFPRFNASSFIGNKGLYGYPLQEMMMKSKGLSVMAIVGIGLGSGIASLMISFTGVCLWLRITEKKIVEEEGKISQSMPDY
Kind of assay: two-hybrid.

The target in assay [3] is T3, BRI1-ASSOCIATED RECEPTOR KINASE 1 (BAK1), split-ubiquitin fusion in yeast (Arabidopsis) (UniProt Q94F62).
T3 sequence: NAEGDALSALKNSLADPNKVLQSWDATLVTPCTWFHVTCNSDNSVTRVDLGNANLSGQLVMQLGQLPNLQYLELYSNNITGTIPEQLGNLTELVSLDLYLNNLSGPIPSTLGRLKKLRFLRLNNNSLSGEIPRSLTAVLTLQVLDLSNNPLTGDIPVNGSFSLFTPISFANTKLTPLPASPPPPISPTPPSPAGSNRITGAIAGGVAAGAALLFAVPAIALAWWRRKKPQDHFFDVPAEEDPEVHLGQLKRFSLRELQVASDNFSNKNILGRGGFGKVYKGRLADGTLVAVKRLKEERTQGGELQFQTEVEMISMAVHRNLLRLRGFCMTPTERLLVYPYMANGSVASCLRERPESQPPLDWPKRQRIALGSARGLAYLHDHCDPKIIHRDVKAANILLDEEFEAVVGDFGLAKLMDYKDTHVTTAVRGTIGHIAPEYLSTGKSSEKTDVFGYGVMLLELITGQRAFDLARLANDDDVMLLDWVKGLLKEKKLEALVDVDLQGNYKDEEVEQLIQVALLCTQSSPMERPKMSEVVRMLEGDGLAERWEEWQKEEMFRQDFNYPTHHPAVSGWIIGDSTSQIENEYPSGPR
Briefly: two-hybrid.

For assay [4], the target named is T2, RLP44, split-ubiquitin fusion in yeast (Arabidopsis). Kind of assay: two-hybrid. The source holds these as a separate data set.

Consider “BRI1cnu4 (BRI1 G746S), in bri1cnu4 mutant plants (from UniProt O22476 24-1196) (receptor)”, for which the binding entry in assay [1] is “binds”.
Consider “BRI1, wild type, split-ubiquitin fusion in yeast (from UniProt O22476 24-1196) (receptor)”, for which the binding entry in assay [2] is “binds”.
On to “BRI1cnu4 (BRI1 G746S), Nub fusion in yeast (from UniProt O22476 24-1196) (receptor)”, for which the binding result in assay [3] and in assay [2] was “binds” in each case.
As to “BRI1cnu3 (BRI1 R769W), Nub fusion in yeast (from UniProt O22476 24-1196) (receptor)”, in assay [2], the binding result was “binds”.
Consider “BRASSINOSTEROID … 1 (BRI1), wild type, in Col-0 plants (from UniProt O22476 24-1196) (receptor)”, for which the binding entry in assay [1] is recorded as “binds”.

B1: BRI1-ASSOCIATED RECEPTOR KINASE 1 (BAK1), split-ubiquitin fusion in yeast (receptor, UniProt Q94F62 26-615)
chain: NAEGDALSALKNSLADPNKVLQSWDATLVTPCTWFHVTCNSDNSVTRVDLGNANLSGQLVMQLGQLPNLQYLELYSNNITGTIPEQLGNLTELVSLDLYLNNLSGPIPSTLGRLKKLRFLRLNNNSLSGEIPRSLTAVLTLQVLDLSNNPLTGDIPVNGSFSLFTPISFANTKLTPLPASPPPPISPTPPSPAGSNRITGAIAGGVAAGAALLFAVPAIALAWWRRKKPQDHFFDVPAEEDPEVHLGQLKRFSLRELQVASDNFSNKNILGRGGFGKVYKGRLADGTLVAVKRLKEERTQGGELQFQTEVEMISMAVHRNLLRLRGFCMTPTERLLVYPYMANGSVASCLRERPESQPPLDWPKRQRIALGSARGLAYLHDHCDPKIIHRDVKAANILLDEEFEAVVGDFGLAKLMDYKDTHVTTAVRGTIGHIAPEYLSTGKSSEKTDVFGYGVMLLELITGQRAFDLARLANDDDVMLLDWVKGLLKEKKLEALVDVDLQGNYKDEEVEQLIQVALLCTQSSPMERPKMSEVVRMLEGDGLAERWEEWQKEEMFRQDFNYPTHHPAVSGWIIGDSTSQIENEYPSGPR
As to B1, the binding result in assay [4] was “binds”.
